Laboratory results published in PMC6777938, “Evolutionary emergence of Hairless as a novel component of the Notch signaling pathway” (eLife, 2019).
Results are given in words; binding and its absence hold for the method and conditions named. Binding seen in cells or lysates may run through a third protein. Some entries that bind do so weakly or less than the wild type. Where a sequence is shown, tags or fusion partners need not be part of it.

By UniProt entry, the sequences of proteins in these tests, tags left out.
UniProt O46036: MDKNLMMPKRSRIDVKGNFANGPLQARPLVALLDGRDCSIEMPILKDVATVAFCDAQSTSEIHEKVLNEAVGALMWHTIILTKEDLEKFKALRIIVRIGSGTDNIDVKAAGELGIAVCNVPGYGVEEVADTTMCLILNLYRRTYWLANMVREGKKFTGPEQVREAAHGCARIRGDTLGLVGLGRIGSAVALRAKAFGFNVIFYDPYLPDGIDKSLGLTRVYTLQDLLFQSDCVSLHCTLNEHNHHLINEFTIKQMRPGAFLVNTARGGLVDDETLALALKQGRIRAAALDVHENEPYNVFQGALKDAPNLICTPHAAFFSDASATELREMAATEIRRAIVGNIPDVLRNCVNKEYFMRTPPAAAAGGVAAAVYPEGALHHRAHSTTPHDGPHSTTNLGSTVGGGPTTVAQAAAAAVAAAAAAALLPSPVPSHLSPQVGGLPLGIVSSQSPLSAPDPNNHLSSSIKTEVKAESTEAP

Target: GST-tagged Drosophila CtBP (Drosophila melanogaster) (UniProt O46036)
Experiment: pull-down; in vitro; GST-dCtBP bound to Glutathione Sepharose beads, His-tagged Strigamia Su(H) fragment in solution; detection by anti-His blot

binding: binds
B1: His-tagged 116-aa segment of Strigamia maritima Su(H) (exons 2-3), wild type (domain or fragment)
chain: GQYDYPPPLASTYSREADLWNVNLATYSSAPTTCTGATPAPSVTGFYAQATGSNSVSPSSVSLTTLTPHFADNHPVDLSNSHRGEGGHLDLVRFQSDRVDAYKHANGLSVHIPDHHA
